Measured values: PMC6891902
These are yes or no findings as the source states them, for the method shown. Binding seen in cells or lysates may run through a third protein. Some entries that bind do so weakly or less than the wild type.

Chains of the proteins cited; added tags and fusions are not shown.
UniProt Q9NZM4: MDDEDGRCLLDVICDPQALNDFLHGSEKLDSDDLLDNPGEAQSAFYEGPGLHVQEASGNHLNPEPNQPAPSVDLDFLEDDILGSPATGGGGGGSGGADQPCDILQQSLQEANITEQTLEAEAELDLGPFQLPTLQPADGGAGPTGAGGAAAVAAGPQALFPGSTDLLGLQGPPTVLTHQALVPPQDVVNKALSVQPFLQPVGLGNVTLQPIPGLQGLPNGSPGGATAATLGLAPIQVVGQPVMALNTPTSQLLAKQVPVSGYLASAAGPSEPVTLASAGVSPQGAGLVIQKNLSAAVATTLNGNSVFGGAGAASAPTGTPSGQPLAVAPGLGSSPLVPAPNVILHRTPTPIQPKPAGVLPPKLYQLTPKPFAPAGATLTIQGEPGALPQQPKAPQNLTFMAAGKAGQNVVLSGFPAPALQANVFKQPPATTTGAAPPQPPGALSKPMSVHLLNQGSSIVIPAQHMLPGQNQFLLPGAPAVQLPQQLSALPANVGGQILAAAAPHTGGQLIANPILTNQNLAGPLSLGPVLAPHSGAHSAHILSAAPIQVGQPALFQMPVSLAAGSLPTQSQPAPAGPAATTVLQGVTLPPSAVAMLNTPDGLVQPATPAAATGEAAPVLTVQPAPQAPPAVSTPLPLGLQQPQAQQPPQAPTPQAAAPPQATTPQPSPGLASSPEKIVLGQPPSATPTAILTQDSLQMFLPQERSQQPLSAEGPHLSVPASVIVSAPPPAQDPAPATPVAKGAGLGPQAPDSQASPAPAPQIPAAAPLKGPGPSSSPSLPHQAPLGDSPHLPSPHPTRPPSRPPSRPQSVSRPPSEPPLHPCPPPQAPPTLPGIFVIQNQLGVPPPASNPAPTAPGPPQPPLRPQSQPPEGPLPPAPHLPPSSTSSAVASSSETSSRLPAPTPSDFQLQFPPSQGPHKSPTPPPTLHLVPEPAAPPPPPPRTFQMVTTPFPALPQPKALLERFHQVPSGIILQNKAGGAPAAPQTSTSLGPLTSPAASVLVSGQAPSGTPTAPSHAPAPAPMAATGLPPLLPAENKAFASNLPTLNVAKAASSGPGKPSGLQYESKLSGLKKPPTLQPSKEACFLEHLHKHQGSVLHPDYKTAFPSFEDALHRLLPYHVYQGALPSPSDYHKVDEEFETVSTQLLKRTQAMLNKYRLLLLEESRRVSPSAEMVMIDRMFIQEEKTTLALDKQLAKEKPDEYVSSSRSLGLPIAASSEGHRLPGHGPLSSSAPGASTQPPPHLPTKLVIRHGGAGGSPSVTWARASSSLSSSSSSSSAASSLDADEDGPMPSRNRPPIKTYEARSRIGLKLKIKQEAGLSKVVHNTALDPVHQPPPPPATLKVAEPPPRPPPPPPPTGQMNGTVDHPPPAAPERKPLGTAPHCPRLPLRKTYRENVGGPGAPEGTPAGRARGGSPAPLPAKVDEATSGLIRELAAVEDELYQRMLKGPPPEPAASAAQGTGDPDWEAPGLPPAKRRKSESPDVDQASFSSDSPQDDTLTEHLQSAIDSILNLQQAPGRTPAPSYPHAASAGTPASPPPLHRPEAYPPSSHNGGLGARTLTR
UniProt P50750: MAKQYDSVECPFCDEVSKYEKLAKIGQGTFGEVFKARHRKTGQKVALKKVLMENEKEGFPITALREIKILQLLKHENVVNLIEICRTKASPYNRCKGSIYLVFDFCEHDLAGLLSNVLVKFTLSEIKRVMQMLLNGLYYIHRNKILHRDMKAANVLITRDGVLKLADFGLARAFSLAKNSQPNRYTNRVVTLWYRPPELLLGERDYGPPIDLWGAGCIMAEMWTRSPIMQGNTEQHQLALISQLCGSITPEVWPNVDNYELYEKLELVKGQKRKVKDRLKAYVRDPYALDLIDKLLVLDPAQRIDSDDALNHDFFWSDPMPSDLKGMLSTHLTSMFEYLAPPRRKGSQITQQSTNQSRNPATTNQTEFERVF

Molecular target: Flag-tagged GLTSCR1^WT (glioma tumor suppressor candidate region gene 1, wild type) (human) (UniProt Q9NZM4)
Experiment: co-IP; Flag-tagged GLTSCR1 (wild type, frameshift or deletion constructs) coexpressed with HA-tagged BRD4 (full length, deletion or mutation constructs) in HEK293; precipitated with Anti-FLAG M2 Magnetic Beads overnight at 4 °C; lysis buffer pH 8.0, 20 mM Tris-HCl, 150 mM NaCl, 0.5% NP-40; immunoblot; cells treated with TSA (20 x 10^-6 M, 12 h) in Figure 5H

binding: binds
Substance: CDK9 (in HEK293 lysate) (from UniProt P50750 1-372)
